PubChem BioAssay AID624297 (National Center for Advancing Translational Sciences (NCATS), 2012)
Out of some 340,000 compounds screened, about 6,200 (1.8%) were called active. The shares of active, inactive and inconclusive entries below differ from those in the screen. The call rests on the fitted dose curve; in most records, active means well fitted activation curve with a large enough effect; inconclusive means small, poorly fitted or top-dose-only effect; inactive means no such curve, though single readings can be large or run the other way. Potencies of inconclusive entries are doubtful fits and often do not repeat.

Test: A quantitative high throughput screen for small molecules that induce DNA re-replication in SW480 colon adenocarcinoma cells. Further: nearly all actives have a fitted effect of over 55% in size. On re-replication activation: % of control where 0% means no effect.
Details: Hoechst DNA content imaging, 48 h; re-replication activation: at 46.1 µM (top of the series) unless noted
Description: H Molecular Libraries Probe Production Network [MLPCN] NIH Chemical Genomics Center [NCGC] MLPCN Grant: Fast Track K99 CA136555 Assay Provider: Melvin DePamphilis, NICHD, NIH Assay Overview Eukaryotic cells normally restrict genome duplication to once per cell division. When this process is aberrant, DNA re-replication occurs when cells reinitiate DNA replication before the first round of replication is complete. DNA re-replication induces the DNA damage response, arrests cell proliferation, and triggers apoptosis. The cell cycle components cyclin A, Cdt-1, Cdc6 and geminin are critical regulators of this process and their misregulation results in DNA re-replication in normal and cancer cells. To identify compounds that induce re-replication in normal cells, an image-based assay was used to measure DNA content of nuclei, as detected by the fluorescent DNA binding dye, Hoechst. Cell nuclei were imaged by a fluorescence scanning plate imager and compounds that induce DNA re-replication were identified by the increase of nuclei with elevated fluorescence intensity
For screening, 250 cells in 5 uL/well were dispensed into black clear 1536-well plates (Aurora) using a solenoid-based dispenser. Following transfer of 23 nL compound or DMSO vehicle by a pin tool, the plates were incubated 48 hr at 37 C and 5% CO2. After addition of 1 uL/well Hoescht stain, the plates were incubated 40 min at 37 C, 5% CO2 and total intensity of fluorescent objects (nuclei) were enumerated by an Acumen Explorer Ex3 (TTP LabTech) fluorescence scanning plate imager (405 nm excitation, 500-530 nm emission). Keywords: NIH Roadmap, MLPCN, MLI, MLSMR, qHTS, NCGC, DNA replication, cancer
Potency means the concentration at half of the fitted maximal effect.

Which Potency does the source give for `C=CC[C@@H](CC(=O)N(CCO)Cc1ccccc1)C(=O)N[C@H](COC(=O)[C@@H](CC=C)Cc1ccc(F)cc1)Cc1c[nH]c2ccccc12` here?
The Potency was “inactive”.

With `CCOC(=O)C1(CCc2ccccc2)CCN(C(=O)CCn2cnnn2)CC1` as the compound, how does the Potency read?
The Potency was inconclusive: 2.06 µM [activator, full curve, poor fit].

For `COc1ccc(CCNC(C)C(=O)Nc2ccc(S(N)(=O)=O)cc2)cc1` (stereo not drawn), which Potency is on record?
Its Potency is inconclusive: 0.82 µM [activator, full curve, poor fit].

With `Cn1c(SCC(=O)Nc2nccs2)nnc1-c1cccnc1` as the compound, how does the Potency read?
Its Potency is inconclusive: 25.9 µM [activator, single point].

For `Cc1ccc(-c2cc(-c3ccccc3)c(C#N)c(N)n2)o1`, which Potency is on record?
The Potency was active: 18.4 µM.

Which Potency does the source give for `Nc1nc(CN2CCN(C(c3ccccc3)c3ccccc3)CC2)nc(Nc2ccccc2)n1` here?
The Potency was “inactive”.

Which Potency does the source give for `O=[N+]([O-])c1c(Nc2ccccn2)cc(Cl)c2nonc12` here?
The Potency was inconclusive: 3.66 µM [activator, full curve].

With `COc1ccc(OCC(O)Cn2c(=N)n(CCN3CCCCC3)c3ccccc32)cc1` (stereo not drawn) as the compound, how does the Potency read?
Its Potency is inconclusive: 20.6 µM [activator, single point].

For `Cc1ccccc1C(=O)N1CCC(C(=O)Nc2nccs2)CC1`, which Potency is on record?
The Potency was inconclusive: 29.1 µM [activator, single point].

Which Potency does the source give for `Cc1ccc(S(=O)(=O)Oc2ccccc2/C=N/Nc2ccc(C(=O)O)cc2)cc1` here?
The Potency was inconclusive: 23.1 µM [activator, single point].

For `COc1ccc(NC(=O)c2c(F)cccc2F)cc1S(=O)(=O)Nc1ccc(Br)cc1`, which Potency is on record?
The Potency was inconclusive: 10.3 µM [activator, single point].

With `CCOc1cc(/C=C/c2ccc3cccc([N+](=O)[O-])c3n2)ccc1OCC(=O)N(C)C` as the compound, how does the Potency read?
Its Potency is inconclusive: 23.1 µM [activator, single point].

With `Cc1cccc(CN2CCC(N3CC(C)OC(C)C3)CC2)c1` (stereo not drawn) as the compound, how does the Potency read?
Its Potency is inconclusive: 0.731 µM [activator, partial curve, poor fit].

For `COc1cccc(CC(=O)OC(C)C(=O)Nc2ncc(Cl)cc2Cl)c1` (stereo not drawn), which Potency is on record?
The Potency was inconclusive: 4.11 µM [activator, full curve, poor fit].

For `CCOc1ccc(CN2CCN(Cc3cc4c(cc3Cl)OCO4)CC2CCO)cc1` (stereo not drawn), which Potency is on record?
Its Potency is inconclusive: 29.1 µM [activator, single point].

For `N#Cc1ccc(/C=C/C(=O)c2cccnc2)cc1`, which Potency is on record?
The Potency was “inactive”.

For `COC(=O)c1sc2cc(C(F)(F)F)cnc2c1-c1ccccn1`, which Potency is on record?
The Potency was inconclusive: 20.6 µM [activator, single point].

Which Potency does the source give for `O=C(Nc1ccc([N+](=O)[O-])cc1)Nn1cnnc1` here?
The Potency was “inactive”.

With `FC(F)(F)c1cnc(N2CCCN(C(=S)Nc3ccccc3)CC2)c(Cl)c1` as the compound, how does the Potency read?
Its Potency is inconclusive: 0.0052 µM [activator, full curve, poor fit].

Which Potency does the source give for `CN(Cc1ccc(C(F)(F)F)cc1)C(=O)c1ccc2ccccc2n1` here?
Its Potency is inconclusive: 18.4 µM [activator, single point].

Which Potency does the source give for `Cc1ccc(C)c(NC(=S)NCCc2c[nH]c3ccccc23)c1` here?
Its Potency is inconclusive: 23.1 µM [activator, partial curve, poor fit].

Which Potency does the source give for `COc1ccc(Br)c(-c2nnc(CS(=O)(=O)c3ccccc3)o2)c1` here?
The Potency was inconclusive: 0.891 µM [activator, partial curve, poor fit].

For `CCN1C(=O)/C(=C\c2ccncc2)SC1=Nc1ccc(C)c(C)c1`, which Potency is on record?
The Potency was “inactive”.

With `N#Cc1ccc(-c2nc3cc(Cl)ccc3c(=O)n2O)cc1` as the compound, how does the Potency read?
The Potency was inconclusive: 20.6 µM [activator, single point].

Which Potency does the source give for `COc1ccc(/C=N/NC(=O)c2cccc([N+](=O)[O-])c2)cc1OS(=O)(=O)c1ccc(C)cc1` here?
The Potency was inconclusive: 13 µM [activator, partial curve].

Which Potency does the source give for `O=C(Oc1ccc(/C=N/O)cc1)c1ccccc1Cl` here?
The Potency was inconclusive: 23.1 µM [activator, single point].

Which Potency does the source give for `CC(C)C(c1nnnn1C1CCCC1)N1c2ccccc2CC1C` (stereo not drawn) here?
Its Potency is inconclusive: 23.1 µM [activator, single point].

With `COc1ccc(N2C(=O)C(C)C(Cc3ccc(C)cc3)C2=O)cc1` (stereo not drawn) as the compound, how does the Potency read?
Its Potency is “inactive”.

Which Potency does the source give for `COC(=O)c1c(NC(=O)c2ccccc2N(C)S(=O)(=O)c2ccccc2)sc2c1CCCC2` here?
The Potency was active: 11.6 µM.

For `CN(C)c1ccc(C=c2c3ccccc3n3c2cc(-c2ccc(Cl)cc2)[n+]3C)cc1`, which Potency is on record?
Its Potency is inconclusive: 18.4 µM [activator, single point].

Which Potency does the source give for `C=CCOc1ccc(NC(=O)C(=O)NCCCn2ccnc2)cc1` here?
Its Potency is “inactive”.

With `CC(=O)OCCCN(C)CC/C=C1/c2ccccc2CSc2ccccc21` as the compound, how does the re-replication activation read?
Its re-replication activation is inactive: -5.35% [at 9.22 µM].

With `CCC(=O)NC(=S)N1CCN(c2ccc([N+](=O)[O-])cc2Cl)CC1` as the compound, how does the Potency read?
Its Potency is inconclusive: 23.1 µM [activator, single point].
